Assay results published in the supplement of paper PMC10849652.
The other results are listed elsewhere or left out.

Amino acid sequences for entries named in this document (tags omitted). A change or cut given only in a name is not applied to a line headed by its entry.
UniProt P56556, whole entry, looked up: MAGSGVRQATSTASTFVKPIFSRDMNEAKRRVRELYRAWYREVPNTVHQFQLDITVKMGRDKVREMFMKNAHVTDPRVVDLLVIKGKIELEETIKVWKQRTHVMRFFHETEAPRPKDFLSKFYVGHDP
UniProt Q15843, whole entry, looked up: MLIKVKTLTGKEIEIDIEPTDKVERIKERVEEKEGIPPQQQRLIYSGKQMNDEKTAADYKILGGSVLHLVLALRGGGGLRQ
UniProt O43678, whole entry, looked up: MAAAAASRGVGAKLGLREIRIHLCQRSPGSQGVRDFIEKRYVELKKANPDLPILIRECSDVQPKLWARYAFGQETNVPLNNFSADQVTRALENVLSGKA
UniProt Q7L592: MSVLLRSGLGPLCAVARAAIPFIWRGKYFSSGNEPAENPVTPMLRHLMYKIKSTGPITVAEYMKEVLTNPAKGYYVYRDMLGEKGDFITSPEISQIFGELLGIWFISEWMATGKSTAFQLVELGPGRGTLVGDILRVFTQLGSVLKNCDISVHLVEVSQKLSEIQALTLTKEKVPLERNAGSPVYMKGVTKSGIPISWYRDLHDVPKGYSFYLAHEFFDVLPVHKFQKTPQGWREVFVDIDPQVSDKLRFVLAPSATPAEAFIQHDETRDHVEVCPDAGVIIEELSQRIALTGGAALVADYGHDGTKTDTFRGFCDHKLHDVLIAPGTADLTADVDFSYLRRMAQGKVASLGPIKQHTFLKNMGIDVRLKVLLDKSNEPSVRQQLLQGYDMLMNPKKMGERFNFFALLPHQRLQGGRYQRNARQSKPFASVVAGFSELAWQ
UniProt O43674, whole entry, looked up: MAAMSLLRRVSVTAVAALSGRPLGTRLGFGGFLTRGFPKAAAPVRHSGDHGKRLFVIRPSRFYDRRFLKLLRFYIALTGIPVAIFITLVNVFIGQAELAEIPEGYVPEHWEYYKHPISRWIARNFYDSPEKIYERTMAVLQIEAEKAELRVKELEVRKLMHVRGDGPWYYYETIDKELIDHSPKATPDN
UniProt O95544: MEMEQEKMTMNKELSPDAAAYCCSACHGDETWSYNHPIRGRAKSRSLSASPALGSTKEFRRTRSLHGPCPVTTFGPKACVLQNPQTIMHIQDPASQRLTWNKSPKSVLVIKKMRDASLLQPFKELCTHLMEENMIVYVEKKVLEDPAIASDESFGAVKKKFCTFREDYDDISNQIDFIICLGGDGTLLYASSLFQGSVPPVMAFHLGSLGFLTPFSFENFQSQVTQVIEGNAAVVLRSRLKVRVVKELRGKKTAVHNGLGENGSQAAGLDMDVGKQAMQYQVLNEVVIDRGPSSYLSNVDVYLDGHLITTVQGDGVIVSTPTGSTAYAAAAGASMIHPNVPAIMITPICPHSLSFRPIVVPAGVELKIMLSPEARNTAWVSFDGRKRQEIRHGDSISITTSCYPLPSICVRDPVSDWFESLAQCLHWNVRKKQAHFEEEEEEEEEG
UniProt Q8TBE9: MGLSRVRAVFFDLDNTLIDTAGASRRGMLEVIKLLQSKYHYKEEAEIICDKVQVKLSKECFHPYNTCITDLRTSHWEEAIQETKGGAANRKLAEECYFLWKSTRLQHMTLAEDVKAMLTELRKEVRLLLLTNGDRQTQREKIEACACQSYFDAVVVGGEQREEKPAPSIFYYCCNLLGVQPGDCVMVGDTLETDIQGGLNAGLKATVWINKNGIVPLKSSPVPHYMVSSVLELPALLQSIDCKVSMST
UniProt O75489, whole entry, looked up: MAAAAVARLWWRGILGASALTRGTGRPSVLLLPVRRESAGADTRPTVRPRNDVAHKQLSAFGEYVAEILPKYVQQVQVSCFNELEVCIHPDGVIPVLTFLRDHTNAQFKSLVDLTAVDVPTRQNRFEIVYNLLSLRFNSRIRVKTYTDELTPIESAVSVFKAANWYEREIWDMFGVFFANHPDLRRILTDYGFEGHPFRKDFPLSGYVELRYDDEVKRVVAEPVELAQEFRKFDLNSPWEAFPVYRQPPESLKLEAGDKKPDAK
UniProt Q99733: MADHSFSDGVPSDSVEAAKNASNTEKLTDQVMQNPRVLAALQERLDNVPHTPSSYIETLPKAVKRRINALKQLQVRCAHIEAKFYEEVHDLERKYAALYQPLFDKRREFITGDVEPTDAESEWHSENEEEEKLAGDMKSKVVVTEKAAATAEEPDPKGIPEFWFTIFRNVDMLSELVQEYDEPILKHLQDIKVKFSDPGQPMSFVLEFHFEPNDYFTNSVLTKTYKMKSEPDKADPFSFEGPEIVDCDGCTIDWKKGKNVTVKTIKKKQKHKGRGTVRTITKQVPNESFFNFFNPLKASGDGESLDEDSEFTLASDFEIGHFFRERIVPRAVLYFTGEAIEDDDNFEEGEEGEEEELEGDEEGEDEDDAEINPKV
UniProt Q96NT1: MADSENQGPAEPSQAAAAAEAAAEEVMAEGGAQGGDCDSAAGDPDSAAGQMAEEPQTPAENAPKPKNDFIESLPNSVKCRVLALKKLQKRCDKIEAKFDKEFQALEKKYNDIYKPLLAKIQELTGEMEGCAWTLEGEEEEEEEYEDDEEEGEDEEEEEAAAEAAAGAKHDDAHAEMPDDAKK
UniProt Q9UGV2: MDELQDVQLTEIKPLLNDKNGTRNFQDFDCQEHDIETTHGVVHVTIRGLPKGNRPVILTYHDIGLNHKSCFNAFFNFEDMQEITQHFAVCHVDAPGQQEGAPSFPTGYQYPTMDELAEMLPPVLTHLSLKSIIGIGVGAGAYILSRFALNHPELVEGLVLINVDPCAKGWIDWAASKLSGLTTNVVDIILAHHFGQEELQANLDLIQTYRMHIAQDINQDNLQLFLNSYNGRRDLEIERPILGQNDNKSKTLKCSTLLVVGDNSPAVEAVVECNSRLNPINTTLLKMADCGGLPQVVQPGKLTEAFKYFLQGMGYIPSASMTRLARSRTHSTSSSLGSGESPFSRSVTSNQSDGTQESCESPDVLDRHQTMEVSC
UniProt Q6IA69: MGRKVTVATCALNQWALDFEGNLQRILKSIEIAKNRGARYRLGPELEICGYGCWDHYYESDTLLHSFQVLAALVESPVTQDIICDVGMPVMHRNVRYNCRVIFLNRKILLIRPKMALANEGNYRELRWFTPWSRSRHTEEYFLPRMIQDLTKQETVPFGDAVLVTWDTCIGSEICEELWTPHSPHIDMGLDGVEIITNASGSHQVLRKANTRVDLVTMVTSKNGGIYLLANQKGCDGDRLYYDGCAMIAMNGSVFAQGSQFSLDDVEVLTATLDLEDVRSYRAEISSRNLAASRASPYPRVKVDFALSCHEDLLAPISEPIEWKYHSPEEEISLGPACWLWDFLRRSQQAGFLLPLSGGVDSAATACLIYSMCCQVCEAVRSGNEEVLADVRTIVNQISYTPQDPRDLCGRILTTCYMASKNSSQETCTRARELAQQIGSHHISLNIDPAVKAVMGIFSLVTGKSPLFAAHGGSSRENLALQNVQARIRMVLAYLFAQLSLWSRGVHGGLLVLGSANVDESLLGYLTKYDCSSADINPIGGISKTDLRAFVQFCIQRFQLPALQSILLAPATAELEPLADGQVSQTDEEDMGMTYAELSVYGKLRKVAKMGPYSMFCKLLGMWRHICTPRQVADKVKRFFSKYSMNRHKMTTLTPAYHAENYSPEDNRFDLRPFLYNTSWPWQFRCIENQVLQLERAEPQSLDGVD
UniProt O95182, whole entry, looked up: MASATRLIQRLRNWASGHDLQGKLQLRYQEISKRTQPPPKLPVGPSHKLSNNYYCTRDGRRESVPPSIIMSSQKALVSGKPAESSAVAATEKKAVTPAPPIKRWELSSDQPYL
UniProt O75438, whole entry, looked up: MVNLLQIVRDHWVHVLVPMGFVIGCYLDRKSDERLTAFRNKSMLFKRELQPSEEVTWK
UniProt Q9P032: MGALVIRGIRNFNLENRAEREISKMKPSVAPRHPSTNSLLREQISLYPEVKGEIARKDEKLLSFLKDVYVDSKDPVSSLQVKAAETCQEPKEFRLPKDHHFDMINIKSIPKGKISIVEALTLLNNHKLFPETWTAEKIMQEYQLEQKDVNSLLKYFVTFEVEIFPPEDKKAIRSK
UniProt O95298, whole entry, looked up: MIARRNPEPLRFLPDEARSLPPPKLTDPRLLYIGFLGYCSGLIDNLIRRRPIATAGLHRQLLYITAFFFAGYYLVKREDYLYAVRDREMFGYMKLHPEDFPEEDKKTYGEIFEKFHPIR
UniProt Q14686, whole entry, looked up: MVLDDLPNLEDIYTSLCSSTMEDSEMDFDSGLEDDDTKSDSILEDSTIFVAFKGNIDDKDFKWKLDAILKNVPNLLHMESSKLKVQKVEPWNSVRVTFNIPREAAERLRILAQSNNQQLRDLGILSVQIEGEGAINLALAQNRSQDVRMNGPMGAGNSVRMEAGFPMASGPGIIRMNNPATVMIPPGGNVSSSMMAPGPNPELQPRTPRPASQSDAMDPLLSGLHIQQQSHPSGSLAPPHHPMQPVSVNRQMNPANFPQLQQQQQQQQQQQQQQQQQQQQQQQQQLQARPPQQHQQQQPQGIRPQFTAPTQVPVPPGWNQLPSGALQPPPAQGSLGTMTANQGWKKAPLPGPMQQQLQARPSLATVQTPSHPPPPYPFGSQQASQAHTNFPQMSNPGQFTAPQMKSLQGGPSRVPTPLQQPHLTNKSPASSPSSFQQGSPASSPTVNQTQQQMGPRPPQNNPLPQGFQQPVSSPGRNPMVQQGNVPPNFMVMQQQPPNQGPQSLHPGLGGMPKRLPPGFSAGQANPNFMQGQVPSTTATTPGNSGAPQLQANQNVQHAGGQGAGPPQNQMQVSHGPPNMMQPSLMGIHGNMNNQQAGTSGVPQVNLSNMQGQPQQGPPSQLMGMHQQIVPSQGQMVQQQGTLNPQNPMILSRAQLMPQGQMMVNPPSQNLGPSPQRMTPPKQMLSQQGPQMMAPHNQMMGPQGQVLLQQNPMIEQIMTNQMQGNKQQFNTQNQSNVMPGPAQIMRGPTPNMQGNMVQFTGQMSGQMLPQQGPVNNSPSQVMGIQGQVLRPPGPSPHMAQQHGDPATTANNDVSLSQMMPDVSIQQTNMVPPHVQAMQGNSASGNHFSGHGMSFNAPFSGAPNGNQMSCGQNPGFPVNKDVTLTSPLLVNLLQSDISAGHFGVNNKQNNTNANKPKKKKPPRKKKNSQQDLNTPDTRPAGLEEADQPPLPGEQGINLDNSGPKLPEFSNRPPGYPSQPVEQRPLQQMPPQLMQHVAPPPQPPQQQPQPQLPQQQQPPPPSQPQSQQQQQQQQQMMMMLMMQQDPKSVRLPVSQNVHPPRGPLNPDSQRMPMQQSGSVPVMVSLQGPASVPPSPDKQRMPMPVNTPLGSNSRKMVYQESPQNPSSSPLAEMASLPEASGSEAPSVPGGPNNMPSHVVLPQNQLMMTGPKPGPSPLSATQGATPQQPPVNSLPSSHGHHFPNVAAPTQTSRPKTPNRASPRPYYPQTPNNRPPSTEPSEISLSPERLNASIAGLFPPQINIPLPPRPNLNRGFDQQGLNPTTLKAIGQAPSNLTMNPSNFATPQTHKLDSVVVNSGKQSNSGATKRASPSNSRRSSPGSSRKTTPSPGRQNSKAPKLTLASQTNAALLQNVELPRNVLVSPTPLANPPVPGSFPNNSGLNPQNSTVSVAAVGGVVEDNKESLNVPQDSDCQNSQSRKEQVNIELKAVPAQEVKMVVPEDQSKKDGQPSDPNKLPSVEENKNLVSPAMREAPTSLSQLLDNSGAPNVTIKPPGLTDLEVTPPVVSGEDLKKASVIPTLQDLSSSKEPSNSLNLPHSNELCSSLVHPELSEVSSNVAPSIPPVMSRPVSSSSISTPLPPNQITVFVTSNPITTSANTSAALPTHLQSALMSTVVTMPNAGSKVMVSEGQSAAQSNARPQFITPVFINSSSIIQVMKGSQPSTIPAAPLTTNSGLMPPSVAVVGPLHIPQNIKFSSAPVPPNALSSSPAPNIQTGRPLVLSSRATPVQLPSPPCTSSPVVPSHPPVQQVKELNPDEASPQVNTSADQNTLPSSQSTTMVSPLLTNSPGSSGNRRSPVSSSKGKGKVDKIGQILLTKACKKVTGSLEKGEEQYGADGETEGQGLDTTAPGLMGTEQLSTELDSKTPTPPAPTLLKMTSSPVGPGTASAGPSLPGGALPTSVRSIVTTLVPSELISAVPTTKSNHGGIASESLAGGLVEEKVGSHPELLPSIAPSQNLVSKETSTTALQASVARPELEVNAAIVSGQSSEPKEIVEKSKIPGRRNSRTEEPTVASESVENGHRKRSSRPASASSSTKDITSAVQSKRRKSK
UniProt O43181, whole entry, looked up: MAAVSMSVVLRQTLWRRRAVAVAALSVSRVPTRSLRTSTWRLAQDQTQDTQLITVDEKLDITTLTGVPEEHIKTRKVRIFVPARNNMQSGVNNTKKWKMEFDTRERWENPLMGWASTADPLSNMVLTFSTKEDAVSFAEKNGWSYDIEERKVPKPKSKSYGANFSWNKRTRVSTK
UniProt Q9UJ70, whole entry, looked up: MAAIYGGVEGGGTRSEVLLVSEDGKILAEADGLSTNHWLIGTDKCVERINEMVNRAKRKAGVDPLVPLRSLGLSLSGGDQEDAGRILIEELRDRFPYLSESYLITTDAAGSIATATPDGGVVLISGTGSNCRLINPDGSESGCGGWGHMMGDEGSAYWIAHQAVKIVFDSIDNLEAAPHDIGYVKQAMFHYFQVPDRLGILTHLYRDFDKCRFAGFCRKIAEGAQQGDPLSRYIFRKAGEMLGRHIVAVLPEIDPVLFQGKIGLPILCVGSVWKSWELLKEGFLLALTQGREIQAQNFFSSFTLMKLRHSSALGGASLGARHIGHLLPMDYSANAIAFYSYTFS

The targets below were run with NC(=O)Nc1cc(-c2cccc(F)c2)sc1C(=O)N[C@H]1CCCNC1 (assay: log2 fold change, soluble protein after heating vs DMSO (PISA); higher = thermal stabilisation; K562 cells, 10 uM, 30 min; active = over 0.2 and 3.5 SD of the protein, either way, in both replicates (recomputed)).
Method in brief: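 K562 cells at 2×10^6 cells/mL were treated for 30 min with 10 μM compound, and aliquots were heated for 3 min over 48°C-58°C before pooling. Extraction used PBS with 0.5% NP-40 at 4°C, and soluble protein was the supernatant after 21,000xg for 90 min, measured by TMTpro 16plex LC-MS/MS with channel sums equalised. Thermal stability values, relative to control samples and from duplicates, are log2 fold changes.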

log2 fold change, inactive:
NDUFA6 (UniProt P56556) -0.023
NARS2 (UniProt Q96I59) -0.05
NEDD8 (UniProt Q15843) -0.024
NDUFA2 (UniProt O43678) -0.006
NDUFAF7 (UniProt Q7L592) -0.058
NDUFB5 (UniProt O43674) 0.007
NADK (UniProt O95544) -0.013
NANP (UniProt Q8TBE9) -0.08
NDUFS3 (UniProt O75489) 0.019
NAP1L4 isoform 2 (UniProt Q99733) -0.034
NAP1L5 (UniProt Q96NT1) 0.117
NDRG3 (UniProt Q9UGV2) 0.04
NADSYN1 (UniProt Q6IA69) -0.035
NDUFA7 (UniProt O95182) 0.019
NDUFB1 (UniProt O75438) 0.053
NAA15, A0A0B4J1W3 0.111
NA, A0A096LPI6 0.03
NCEH1 isoform 2 (UniProt Q6PIU2) 0
NDUFAF4 (UniProt Q9P032) -0.008
NDUFC2 (UniProt O95298) -0.039
NAF1 (UniProt Q96HR8) 0.026
NCOA6 (UniProt Q14686) 0.121
NDUFS4 (UniProt O43181) -0.015
NAGK isoform 2 (UniProt Q9UJ70) -0.036

An excerpt from the list above, for reference:
log2 fold change, inactive:
NAP1L5 (UniProt Q96NT1) 0.117
NDRG3 (UniProt Q9UGV2) 0.04
